Counter-ions that a name gives are not always drawn. The list shows a part of the results. Hit calls seldom repeat between salt and free forms of one compound.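 Kinases were expressed as nanoluciferase fusions in K562 cells and luminescence was read every 4 h between 2 and 18 h as percent of control, DMSO set to 100% and a positive control to 0%. A time point counts as decreased when the signal drops significantly (2 sigma). The hit call is the authors' own, does not follow from the count of time points alone, and its rule is not shown.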
Target: FLT3 (UniProt P36888)
Assay: number of time points (of 5) at which kinase-Nluc abundance scored as decreased, DMSO-normalised (count); higher = more persistent destabilization
Conditions: K562; 2-18 h

Sequences of proteins named here, by UniProt entry; tags and fusion partners are left off.
UniProt P36888, whole entry: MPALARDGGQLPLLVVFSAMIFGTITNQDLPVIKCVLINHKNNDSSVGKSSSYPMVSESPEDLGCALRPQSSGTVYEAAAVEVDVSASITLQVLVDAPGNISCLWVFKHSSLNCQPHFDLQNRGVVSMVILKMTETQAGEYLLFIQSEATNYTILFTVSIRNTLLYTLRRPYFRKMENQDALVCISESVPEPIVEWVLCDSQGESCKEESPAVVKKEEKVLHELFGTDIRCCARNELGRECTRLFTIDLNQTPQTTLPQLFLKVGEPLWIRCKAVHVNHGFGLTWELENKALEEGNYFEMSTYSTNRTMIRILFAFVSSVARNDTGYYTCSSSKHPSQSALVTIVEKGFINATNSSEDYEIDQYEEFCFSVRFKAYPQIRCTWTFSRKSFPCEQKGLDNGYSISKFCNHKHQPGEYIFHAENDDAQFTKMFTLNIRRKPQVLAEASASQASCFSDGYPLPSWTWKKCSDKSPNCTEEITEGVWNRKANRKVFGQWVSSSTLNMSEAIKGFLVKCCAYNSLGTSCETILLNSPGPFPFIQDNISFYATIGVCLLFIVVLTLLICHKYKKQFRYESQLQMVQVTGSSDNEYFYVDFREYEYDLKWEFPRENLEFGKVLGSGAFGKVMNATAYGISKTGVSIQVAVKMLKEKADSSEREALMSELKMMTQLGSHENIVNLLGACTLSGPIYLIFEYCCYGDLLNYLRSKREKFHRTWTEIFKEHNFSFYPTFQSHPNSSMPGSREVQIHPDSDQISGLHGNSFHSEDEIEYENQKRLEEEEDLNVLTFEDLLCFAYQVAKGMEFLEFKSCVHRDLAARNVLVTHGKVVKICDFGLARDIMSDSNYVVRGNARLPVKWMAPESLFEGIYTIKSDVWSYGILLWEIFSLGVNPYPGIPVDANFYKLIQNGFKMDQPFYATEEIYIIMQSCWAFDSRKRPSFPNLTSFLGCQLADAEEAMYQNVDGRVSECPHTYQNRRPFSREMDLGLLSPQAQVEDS
UniProt P06241, whole entry, looked up: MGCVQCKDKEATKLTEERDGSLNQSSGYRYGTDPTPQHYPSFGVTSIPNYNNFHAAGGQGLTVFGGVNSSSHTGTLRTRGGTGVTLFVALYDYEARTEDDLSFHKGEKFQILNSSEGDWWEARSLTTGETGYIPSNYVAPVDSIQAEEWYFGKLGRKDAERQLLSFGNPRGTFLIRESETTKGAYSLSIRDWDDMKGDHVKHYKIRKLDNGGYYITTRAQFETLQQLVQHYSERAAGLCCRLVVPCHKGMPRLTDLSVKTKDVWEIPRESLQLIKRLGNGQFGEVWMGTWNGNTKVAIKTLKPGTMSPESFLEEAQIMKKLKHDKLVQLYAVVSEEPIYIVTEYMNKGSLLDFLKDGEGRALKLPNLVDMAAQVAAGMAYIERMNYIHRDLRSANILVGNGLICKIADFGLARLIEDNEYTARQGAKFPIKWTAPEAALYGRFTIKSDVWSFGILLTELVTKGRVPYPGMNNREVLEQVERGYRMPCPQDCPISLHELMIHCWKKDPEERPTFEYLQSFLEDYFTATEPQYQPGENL

Compound	number of time points
COc1cnccc1Nc1nc(-c2nn(Cc3c(F)cc(OCCO)cc3F)c3ccccc23)ncc1OC (10 µM)	0
C[C@@H]1COCCN1c1cc(C2([S@](C)(=N)=O)CC2)nc(-c2cc[nH]c3nccc2-3)n1 [Ceralasertib] (2.5 µM)	0
CC(C)C[C@H](NC(=O)[C@H](CCCCN)NC(=O)[C@H](CO)NC(=O)[C@@H](N)CC(C)C)C(N)=O [LSKL, Inhibitor of Thrombospondin (TSP-1) (TFA)] (10 µM)	0
Cn1cc(-c2cc3c(N4CCN(c5ncc([C@@](C)(N)c6ccc(F)cc6)cn5)CC4)ncnn3c2)cn1 [Avapritinib] (2.5 µM)	0
CC(C)(C)C(=O)N1N=CC[C@H]1c1ccccc1 (10 µM)	0
N#Cc1ccc(-c2c(-c3ncn[nH]3)sc(N3CCOCC3)c2C#N)c(F)c1 (10 µM)	0
O=[N+]([O-])c1ccc(Sc2cccc[n+]2[O-])c2nonc12 (2.5 µM)	0
Nc1nc2cc(-c3ccc4ncc(C(=O)N5CCOCC5)n4c3)ccc2o1 [Serabelisib] (10 µM)	0
NCCCCCCNS(=O)(=O)c1cccc2c(Cl)cccc12 [W-7 (hydrochloride)] (10 µM)	0
COc1ccc(CCNc2ncc3c(=O)n(-c4cccc(F)c4)c(=O)[nH]c3n2)cc1OC (2 µM)	0
CCc1ccc(C(=O)COc2ccc(CC3SC(=O)NC3=O)cc2)nc1 (configuration not stated) (10 µM)	0
Nc1cc(C(F)F)c(-c2nc(N3C4CCC3COC4)nc(N3C4CCC3COC4)n2)cn1 (2.5 µM)	0
CC(C)(C)c1cc(C(c2cc3c(cc2O)OCO3)N2CCOCC2)cc(C(C)(C)C)c1O (configuration not stated) (2.5 µM)	0
N#C/C(=C(/N)Sc1ccc(N)cc1)c1ccccc1C(F)(F)F (10 µM)	0
CC(C)c1cnn2c(NCc3ccccc3-n3cccn3)nc(OC3CCCNC3)nc12 (configuration not stated) (2.5 µM)	0
COc1cc(C(C)=O)cc(OC)c1O [Acetosyringone] (10 µM)	0
O=S(=O)(c1cccc2cnccc12)N1CCNCC1 (10 µM)	0
CN1C(=O)NC(Cc2c[nH]c3c(Cl)cccc23)C1=O (racemic) [Necrostatin 2 (racemate)] (10 µM)	0
COc1ccc2c(c1)c(C1=C(c3c[nH]c4ccccc34)C(=O)NC1=O)cn2CCCN(C)C (10 µM)	0
COc1cc(-c2cc(-c3cc(OC)c(OC)c(OC)c3)cc(C(F)P(=O)(OCOC(=O)C(C)(C)C)OCOC(=O)C(C)(C)C)c2)cc(OC)c1OC (configuration not stated) [Stafia-1-dipivaloyloxymethyl ester] (2.5 µM)	0
Fc1c(Br)cccc1Nc1ncnc2cc3c(cc12)OCCO3 (2.5 µM)	0
CN(C)c1ncnc2nc[nH]c12 [6-(Dimethylamino)purine] (10 µM)	0
CN(C)Cc1cccc(N=C(c2ccccc2)c2c(O)[nH]c3cc(C(=O)N(C)C)ccc23)c1 (10 µM)	0
Cn1cc(-c2ccc3nnc(C(F)(F)c4ccc5ncccc5c4)n3n2)cn1 (10 µM)	0

Target: FYN (UniProt P06241)
Assay: as above
Conditions: K562; 2-18 h

Compound	number of time points
CC(C)c1ccc(CC(=O)N2CCN(c3ccc(C#N)nn3)CC2)cc1 (10 µM)	0
C=CC(=O)N1CCC[C@@H](n2nc(C(=O)Nc3ccc(CC(=O)N(C)C)c(C)c3C)c3c(N)ncnc32)C1 (10 µM)	0
O=C(O)CCc1ccc(NCc2cccc(Oc3ccccc3)c2)cc1 (10 µM)	0
CCc1c(C)sc(NC(=S)NC(=O)c2ccc(Cl)cc2)c1C(N)=O (10 µM)	0
C=CC(=O)Nc1cccc(-n2c(=O)cc(C)c3cnc(Nc4ccc(OCCN(C)C)cc4OC)nc32)c1 (10 µM)	0
C=C(F)C(=O)N1CCN(c2nc(OC[C@@H]3CCCN3C)nc3c2CCN(c2cccc4cccc(Cl)c24)C3)C[C@@H]1CC#N (2.5 µM)	0
COc1ncc(Nc2ncc([C@@H](C)N3CCN(S(C)(=O)=O)CC3)cc2-c2nc(C)nc(N)n2)cc1F (10 µM)	0
COc1ccc2c(c1OC)OC1c3ccc(O)cc3OCC21 (configuration not stated) [Methylnissolin] (10 µM)	0
O=C(CO)N1CCC(c2n[nH]c(-c3ccc(Cl)cc3)c2-c2ccncn2)CC1 (10 µM)	0
O=C1NC(=O)/C(=C/c2ccc(-c3ccc(F)cc3O)o2)S1 (10 µM)	0
Cc1cc(C(C)Nc2ccccc2)c2nc(N3CCOCC3)cc(=O)n2c1 (configuration not stated) (10 µM)	0
Cc1cccc(-c2[nH]ncc2-c2ccc3ncccc3n2)n1 (10 µM)	0
Cc1cc2ncc(-c3ccccc3)nc2cc1C (10 µM)	0
COc1cc(C(=O)N2CCC(N3CCN(C)CC3)CC2)ccc1Nc1ncc2c(n1)N(C)c1ccccc1C(=O)N2C (10 µM)	0
COc1cnccc1Nc1nc(-c2nn(Cc3c(F)cc(OCCO)cc3F)c3ccccc23)ncc1OC (10 µM)	0
C[C@@H]1COCCN1c1cc(C2([S@](C)(=N)=O)CC2)nc(-c2cc[nH]c3nccc2-3)n1 [Ceralasertib] (2.5 µM)	0
CC(C)C[C@H](NC(=O)[C@H](CCCCN)NC(=O)[C@H](CO)NC(=O)[C@@H](N)CC(C)C)C(N)=O [LSKL, Inhibitor of Thrombospondin (TSP-1) (TFA)] (10 µM)	0
Cn1cc(-c2cc3c(N4CCN(c5ncc([C@@](C)(N)c6ccc(F)cc6)cn5)CC4)ncnn3c2)cn1 [Avapritinib] (2.5 µM)	0
CC(C)(C)C(=O)N1N=CC[C@H]1c1ccccc1 (10 µM)	0

Compound	number of time points
N#Cc1ccc(-c2c(-c3ncn[nH]3)sc(N3CCOCC3)c2C#N)c(F)c1 (10 µM)	0
O=[N+]([O-])c1ccc(Sc2cccc[n+]2[O-])c2nonc12 (2.5 µM)	0
Nc1nc2cc(-c3ccc4ncc(C(=O)N5CCOCC5)n4c3)ccc2o1 [Serabelisib] (10 µM)	0
NCCCCCCNS(=O)(=O)c1cccc2c(Cl)cccc12 [W-7 (hydrochloride)] (10 µM)	0
COc1ccc(CCNc2ncc3c(=O)n(-c4cccc(F)c4)c(=O)[nH]c3n2)cc1OC (2 µM)	0
CCc1ccc(C(=O)COc2ccc(CC3SC(=O)NC3=O)cc2)nc1 (configuration not stated) (10 µM)	0
Nc1cc(C(F)F)c(-c2nc(N3C4CCC3COC4)nc(N3C4CCC3COC4)n2)cn1 (2.5 µM)	0
CC(C)(C)c1cc(C(c2cc3c(cc2O)OCO3)N2CCOCC2)cc(C(C)(C)C)c1O (configuration not stated) (2.5 µM)	0
N#C/C(=C(/N)Sc1ccc(N)cc1)c1ccccc1C(F)(F)F (10 µM)	0
CC(C)c1cnn2c(NCc3ccccc3-n3cccn3)nc(OC3CCCNC3)nc12 (configuration not stated) (2.5 µM)	0
COc1cc(C(C)=O)cc(OC)c1O [Acetosyringone] (10 µM)	0
O=S(=O)(c1cccc2cnccc12)N1CCNCC1 (10 µM)	0
CN1C(=O)NC(Cc2c[nH]c3c(Cl)cccc23)C1=O (racemic) [Necrostatin 2 (racemate)] (10 µM)	0
COc1ccc2c(c1)c(C1=C(c3c[nH]c4ccccc34)C(=O)NC1=O)cn2CCCN(C)C (10 µM)	0
COc1cc(-c2cc(-c3cc(OC)c(OC)c(OC)c3)cc(C(F)P(=O)(OCOC(=O)C(C)(C)C)OCOC(=O)C(C)(C)C)c2)cc(OC)c1OC (configuration not stated) [Stafia-1-dipivaloyloxymethyl ester] (2.5 µM)	0
Fc1c(Br)cccc1Nc1ncnc2cc3c(cc12)OCCO3 (2.5 µM)	0
CN(C)c1ncnc2nc[nH]c12 [6-(Dimethylamino)purine] (10 µM)	0
CN(C)Cc1cccc(N=C(c2ccccc2)c2c(O)[nH]c3cc(C(=O)N(C)C)ccc23)c1 (10 µM)	0
Cn1cc(-c2ccc3nnc(C(F)(F)c4ccc5ncccc5c4)n3n2)cn1 (10 µM)	0

Reference: the supplement of paper PMC12823440, “Inhibitors supercharge kinase turnover through native proteolytic circuits” (Nature, 2025)
